Source: PubChem BioAssay AID624291 (National Center for Advancing Translational Sciences (NCATS), 2012)
In all, about 350,000 compounds went through this assay and about 220 (0.063%) were called active. Inconclusive results, whose numbers are uncertain, are shown with a selection of clear calls. Calls follow the shape of the dose curve; as a rule, active = well fitted activation curve with a large enough effect; inconclusive = small, poorly fitted or top-dose-only effect; inactive = no such curve, though single readings can be large or run the other way. A potency beside an inconclusive call is a rough fit, not a confirmed value.

Experiment: qHTS for Activators of Integrin-Mediated Alleviation for Muscular Dystrophy; also: nearly all actives have a fitted effect of over 60% in size;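 as to activation: 100% = response of the positive control SU9516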
Conditions: alpha7betagal myoblasts, beta-gal FDG fluorescence, 48 h; activation: at 38.3 µM (top of the series)
Method in brief: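 alpha7betagal+/- myoblasts (passage 13, 250/well) treated 48 h at 37C with compounds at 1:260 dilution of DMSO stock. Lysed, then beta-galactosidase activity read as FDG fluorescence (ex 480/em 540) after 30 min, with pre-read for autofluorescence.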
Potency is read from the fitted curve at half-maximal effect.

SMILES	Potency	activation
Nc1ccc(C(=O)OCCCc2nc3cc4ccccc4cc3[nH]2)cc1	inconclusive: 4.47 µM [activator, single point]	
O=C(O)CC1SC(N/N=C/c2ccc(Br)cc2)NC1=O (stereo not drawn)	inconclusive: 28.2 µM [activator, single point]	
CCOC(=O)C1CCCN(C(=O)c2ccc3nc(-c4ccccc4)c(-c4ccccc4)nc3c2)C1 (stereo not drawn)		inactive: 9.43%
CNc1oc(-c2ccccc2Cl)nc1P(=O)(c1ccccc1)c1ccccc1		inactive: 7.71%
O=C(O)CCC(=O)N1CN2CN(C(=O)CCC(=O)O)CC([N+](=O)[O-])(C2)C1	inconclusive: 8.91 µM [activator, single point]	
O=C1/C(=C/c2ccco2)CCC1C1CCCC1 (stereo not drawn)		inactive: -0.152%
Cc1c(C(=O)NCCc2ccccc2)oc2ccc(S(=O)(=O)N3CCC4(CC3)OCCO4)cc12	inconclusive: 5.01 µM [activator, single point]	
O=C(COc1cccc(Cl)c1Cl)NC1CC1	inconclusive: 28.2 µM [activator, single point]	
O=S(=O)(Nc1ccccc1)c1ccc(NS(=O)(=O)c2c(F)cccc2F)cc1	inconclusive: 20 µM [activator, single point]	
CCc1ccc(NC(=O)CSc2nncn2-c2cccnc2)cc1	inconclusive: 22.4 µM [activator, single point]	
S=c1[nH]nc(C2CCCCC2)n1/N=C/c1cccc(Cl)c1Cl	inconclusive: 5.01 µM [activator, single point]	
COc1cccc(OC)c1C(=O)N1CCN(C(=O)c2ccc(-c3ccccc3)cc2)CC1	inconclusive: 1.41 µM [activator, partial curve, poor fit]	
Cc1c(Cl)cccc1NC(=O)c1ncn[nH]1	inconclusive: 12.6 µM [activator, single point]	
Cc1ccc2[nH]c(-c3cccc(F)c3)cc(=O)c2c1		inactive: -7.88%
c1coc(-c2nc3ccccc3s2)c1		inactive: 0%
CSc1nnc2c3cc(F)ccc3n(Cc3ccccc3)c2n1	inconclusive: 20 µM [activator, single point]	
N#CCNC(=O)C1c2ccccc2Oc2ccccc21		inactive: -8.69%
O=C(O)CCNc1ccc(Cl)cc1	inconclusive: 28.2 µM [activator, single point]	
COc1ccc2[nH]c3c(c2c1)CCN1C(=O)N([C@@H](C)C(=O)NCc2ccc(C)cc2)C(=O)[C@]31C		inconclusive: -6.76% [activator]
C=C(C)C(=O)Nc1cccc(C2=NOC3(C2)C[C@@H](C(N)=O)N(C(=O)CCCCC)C3)c1 (stereo partly drawn)		inactive: -6.84%
Cc1ccc(-n2c(C)cc3c2CC(C)(C)CC3=O)cc1C		inactive: 16.7%
NC(=O)c1cc(-c2cccnc2)nc2ccc(Br)cc12	inconclusive: 3.55 µM [activator, single point]	
Cc1ccc(OCc2ccc(C(=O)Nc3cc(C)on3)o2)c([N+](=O)[O-])c1	inconclusive: 28.2 µM [activator, single point]	
CC1=CC(C)C(COC(=O)CN2CCCCC2)C(C)C1 (stereo not drawn)	inconclusive: 28.2 µM [activator, single point]	

SMILES	Potency	activation
Cc1cccc(CCNc2nc3ccc(C)cc3n3cnnc23)c1	inconclusive: 2.82 µM [activator, single point]	
CCOc1ccc(C(=O)Oc2cc(C)[nH]c(=O)c2[N+](=O)[O-])cc1OCC	inconclusive: 14.1 µM [activator, partial curve, poor fit]	
c1ccc(-c2onc3c2CCCC3)cc1		inactive: -0.927%
O=C(COc1ccc(Cl)cc1)NCCc1ccccn1		inactive: 24.9%
Cc1cnc([N+](=O)[O-])n1CCOC(=O)NC(=O)c1ccccc1Cl	inconclusive: 12.6 µM [activator, single point]	
CCOC(=O)N1CCN(S(=O)(=O)c2ccc(C(=O)Nc3nc4ccc(F)cc4s3)cc2)CC1		inactive: -7.23%
CCOc1ccc(/C=N/NC(=O)c2ccccc2NC(=O)c2ccc(OC)cc2)cc1	inconclusive: 15.8 µM [activator, single point]	
O=C(CSc1nnc(NC(=O)c2ccc3c(c2)OCO3)s1)NCc1ccco1		inactive: 4.78%
CCOc1ccc(Nc2nc(N)nc(CCl)n2)cc1		inactive: -35.1%
O=C(CN1C(=O)C2CCCCC2C1=O)Nc1ccccc1N1CCCC1 (stereo not drawn)		inactive: 6.08%
C/C(=C\c1ccccc1)C(=O)Nc1ccc(Cl)cn1	inconclusive: 3.16 µM [activator, partial curve, poor fit]	
O=c1[nH]ncc(N/N=C\c2cccs2)c1Cl	inconclusive: 10 µM [activator, single point]	
O=C(NC1CCCC1)c1cc(-c2ccccc2Cl)on1	inconclusive: 12.6 µM [activator, single point]	
Cc1ccc(Cn2ccsc2=NC(=O)CCl)cc1		inactive: -63.5%
CNC(=S)N(CCc1ccc(S(N)(=O)=O)cc1)C1CC(=O)N(c2ccccc2F)C1=O (stereo not drawn)		inactive: -12.3%
O=C(NCCc1ccccc1)C(=O)NCCC1CCCCN1S(=O)(=O)c1ccccc1 (stereo not drawn)	inconclusive: 7.08 µM [activator, partial curve, poor fit]	
COc1cc(OC)c(NS(=O)(=O)c2cc3[nH]c(=O)c(=O)[nH]c3cc2C)cc1Cl		inactive: -11.7%
O=C(CSc1nnc(-c2cccs2)n1-c1cccc(Cl)c1)c1cccc2c1OCCO2	inconclusive: 3.16 µM [activator, single point]	
O=C(NCc1ccco1)C(C(=O)c1ccccc1)n1ccccc1=O (stereo not drawn)	inconclusive: 22.4 µM [activator, single point]	
N#CCCN1CCN(S(=O)(=O)c2ccc(S(=O)(=O)N3CCCCCC3)cc2)CC1		inactive: 0%
O=C(COC(=O)C1COc2ccccc2O1)Nc1ccccc1OC(F)F (stereo not drawn)		inconclusive: 7.57% [activator]
CCn1c2ccc(C)cc2c2nnc(SCCN3CCCCC3)nc21	inconclusive: 17.8 µM [activator, partial curve, poor fit]	
O[C@@H]1C[C@H](c2ccccc2)N(CC2CCCCC2)C[C@H]1n1cc(C2CC2)nn1		inactive: 22.5%
C=C(C)C1CC=C(C)/C(=N/NC(=O)COc2ccc(Cl)cc2)C1 (stereo not drawn)		inactive: 0.934%

Exported bar-delimited: 3 of the compounds above.
SMILES | Potency | activation
NC(=O)c1cc(-c2cccnc2)nc2ccc(Br)cc12 | inconclusive: 3.55 µM [activator, single point] | 
Cc1ccc(OCc2ccc(C(=O)Nc3cc(C)on3)o2)c([N+](=O)[O-])c1 | inconclusive: 28.2 µM [activator, single point] | 
O=C(NC1CCCC1)c1cc(-c2ccccc2Cl)on1 | inconclusive: 12.6 µM [activator, single point] | 
